Laboratory results: PubChem BioAssay AID1259425 (University of Nebraska Medical Center, 2018)

Screen: 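Compare each knockdown with KSR1 silencing using changes in marker transcripts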 (primary screen)
System: HCT116 human colon cancer cells
Reagent: siRNA pool against human genes, 50 nM siRNA
Detection: 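After 50 nM siRNA pool, branched-DNA assay measures six marker transcripts per well, minus blank, normalised to the geometric mean of two housekeeping transcripts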
Direction: BNIP3L mRNA: higher = more BNIP3L transcript after knockdown
This is a random part of about 14,000 reagents. Further read-outs or replicates are left out here. Not given: the time to read-out.

target gene,"BNIP3L mRNA, set 1"
AIRIM (GeneID 54955),0.105
PTCD2 (GeneID 79810),0.122
MED22 (GeneID 6837),0.282
ERO1A (GeneID 30001),0.0869
USP14 (GeneID 9097),0.106
KLF3-AS1 (GeneID 79667),0.125
DNAJA3 (GeneID 9093),0.137
TPK1 (GeneID 27010),0.197
FEN1 (GeneID 2237),0.0939
RAB31 (GeneID 11031),0.184
ERGIC1 (GeneID 57222),0.161
EIF1AD (GeneID 84285),0.111
RTN4RL2 (GeneID 349667),0.207
IL16 (GeneID 3603),0.0814
ARHGEF12 (GeneID 23365),0.128
MAGEA1 (GeneID 4100),0.112
TBCCD1 (GeneID 55171),0.115
ARHGDIG (GeneID 398),0.0911
TGFB1I1 (GeneID 7041),0.113
LIPT1 (GeneID 51601),0.139
C1RL (GeneID 51279),0.274
ZNF702P (GeneID 79986),0.14
CCL25 (GeneID 6370),0.173
GZMM (GeneID 3004),0.414
TNFSF18 (GeneID 8995),0.0595
STX2 (GeneID 2054),0.0644
DDX4 (GeneID 54514),0.116
HMGB1P10 (GeneID 100130561),0.166
XRCC4 (GeneID 7518),0.0317
AHRR (GeneID 57491),0.0215
EXO1 (GeneID 9156),0.0939
SATB2 (GeneID 23314),0.0771
RAB3IL1 (GeneID 5866),0.0812
DNM2 (GeneID 1785),0.0729
